The text below walks through data of publication PMC4368798.

For data set [1], the target named is pro-uPA R323/166A R343A (Homo sapiens) (UniProt P00749). Description: SPR. To be noted: 15 nM aptamer, 2'-fluoro pyrimidines (2'-F-C, 2'-F-U), SPR: HBS (20 mM HEPES, 140 mM NaCl, pH 7.4), 2 mM MgCl2, 0.1% BSA, 0.005% Tween 20, temperature not stated, recombinant protein, residues 21-431, synthetic backbone.
Data set [2] addresses pro-uPA wild type (Homo sapiens) (UniProt P00749). Description: SPR. To be noted: 15 nM aptamer, wild-type reference; 2'-fluoro pyrimidines (2'-F-C, 2'-F-U); SPR: HBS (20 mM HEPES, 140 mM NaCl, pH 7.4), 2 mM MgCl2, 0.1% BSA, 0.005% Tween 20, temperature not stated; recombinant protein; residues 21-431; synthetic backbone.
Data set [3] concerns the target pro-uPA K338/179A K358A (Homo sapiens) (UniProt P00749). As to the kind of experiment: SPR. To be noted: 15 nM aptamer, 2'-fluoro pyrimidines (2'-F-C, 2'-F-U), SPR: HBS (20 mM HEPES, 140 mM NaCl, pH 7.4), 2 mM MgCl2, 0.1% BSA, 0.005% Tween 20, temperature not stated, recombinant protein, residues 21-431, synthetic backbone.
Data set [4] concerns the target pro-uPA W30A W50A (Homo sapiens) (UniProt P00749). As to the kind of experiment: SPR. The following applies: 15 nM aptamer, not among reduced mutants, plasmin activation of W30A also inhibited; 2'-fluoro pyrimidines (2'-F-C, 2'-F-U); SPR: HBS (20 mM HEPES, 140 mM NaCl, pH 7.4), 2 mM MgCl2, 0.1% BSA, 0.005% Tween 20, temperature not stated; recombinant protein; residues 21-431; synthetic backbone.

Data set [5] has as its system pro-uPA wild type + uPAR. As to the kind of experiment: SPR competition. To be noted: no inhibition of 10 nM pro-uPA:uPAR binding to vitronectin; 2'-fluoro pyrimidines (2'-F-C, 2'-F-U); SAXS: HBS, 2 mM MgCl2, 25 C; recombinant protein; synthetic backbone.
Data set [6] addresses pro-uPA K48A K68A (Homo sapiens) (UniProt P00749). As to the kind of experiment: SPR. To be noted: 15 nM aptamer, 25-50% reduction; 2'-fluoro pyrimidines (2'-F-C, 2'-F-U); SPR: HBS (20 mM HEPES, 140 mM NaCl, pH 7.4), 2 mM MgCl2, 0.1% BSA, 0.005% Tween 20, temperature not stated; recombinant protein; residues 21-431; synthetic backbone.
In data set [7] the target is pro-uPA K98A K118A (Homo sapiens) (UniProt P00749). As to the kind of experiment: SPR. To be noted: 15 nM aptamer, 25-50% reduction; 2'-fluoro pyrimidines (2'-F-C, 2'-F-U); SPR: HBS (20 mM HEPES, 140 mM NaCl, pH 7.4), 2 mM MgCl2, 0.1% BSA, 0.005% Tween 20, temperature not stated; recombinant protein; residues 21-431; synthetic backbone.
Data set [8] has as its target pro-uPA R391/231A R411A (Homo sapiens) (UniProt P00749). As to the kind of experiment: SPR. The following applies: 15 nM aptamer, binding not affected; 2'-fluoro pyrimidines (2'-F-C, 2'-F-U); SPR: HBS (20 mM HEPES, 140 mM NaCl, pH 7.4), 2 mM MgCl2, 0.1% BSA, 0.005% Tween 20, temperature not stated; recombinant protein; residues 21-431; synthetic backbone.
Data set [9] concerns the target pro-uPA Y284/127A Y304A (Homo sapiens) (UniProt P00749). Description: SPR. The following applies: 15 nM aptamer, binding not affected; 2'-fluoro pyrimidines (2'-F-C, 2'-F-U); SPR: HBS (20 mM HEPES, 140 mM NaCl, pH 7.4), 2 mM MgCl2, 0.1% BSA, 0.005% Tween 20, temperature not stated; recombinant protein; residues 21-431; synthetic backbone.
Data set [10] has as its target pro-uPA K46A K66A (Homo sapiens) (UniProt P00749). Description: SPR. To be noted: 15 nM aptamer, 25-50% reduction; 2'-fluoro pyrimidines (2'-F-C, 2'-F-U); SPR: HBS (20 mM HEPES, 140 mM NaCl, pH 7.4), 2 mM MgCl2, 0.1% BSA, 0.005% Tween 20, temperature not stated; recombinant protein; residues 21-431; synthetic backbone.
Data set [11] concerns the target pro-uPA N22A N42A (Homo sapiens) (UniProt P00749). As to the kind of experiment: SPR. The following applies: 15 nM aptamer, 25-50% reduction; 2'-fluoro pyrimidines (2'-F-C, 2'-F-U); SPR: HBS (20 mM HEPES, 140 mM NaCl, pH 7.4), 2 mM MgCl2, 0.1% BSA, 0.005% Tween 20, temperature not stated; recombinant protein; residues 21-431; synthetic backbone.
Data set [12] deals with pro-uPA K61A K81A (Homo sapiens) (UniProt P00749). Description: SPR. The following applies: 15 nM aptamer, 25-50% reduction; 2'-fluoro pyrimidines (2'-F-C, 2'-F-U); SPR: HBS (20 mM HEPES, 140 mM NaCl, pH 7.4), 2 mM MgCl2, 0.1% BSA, 0.005% Tween 20, temperature not stated; recombinant protein; residues 21-431; synthetic backbone.
Data set [13] has as its system pro-uPA wild type + uPAR. Description: SPR. To be noted: 100 nM aptamer on captured pro-uPA:uPAR; 2'-fluoro pyrimidines (2'-F-C, 2'-F-U); SPR: HBS (20 mM HEPES, 140 mM NaCl, pH 7.4), 2 mM MgCl2, 0.1% BSA, 0.005% Tween 20, temperature not stated; recombinant protein; synthetic backbone.

For some of these results: The comparison behind a weaker result is the experiment's own reference, which may not be listed here. For some of these results: For at least one entry, the source does not settle the construct or the ends of the probe. For some of these results: Negatives hold for the conditions tested. For some of these results: At least one verdict was read from the data and is not stated in words by the source.

In the case of “GGGGCCACCAACGACAUUCAUUCGCACGCUGUGUGGGGAUUAGUCCCGAUGUUGUUGAUAUAAAUAGUGCCCAUGGAUC [upanap-126]”, the binding result in data set [1] (25-50% reduction) is “binds more weakly”; in [2], “binds”; in data set [3] (25-50% reduction), “binds more weakly”; in data set [4], “binds”.

For “GGGGCCACCAACGACAUUUGCGACUGUUAUAACCUAACAGCGACGUAAAGAUAGUUGAUAUAAAUAGUGCCCAUGGAUC [upanap-12]”, the binding result in the data set on pro-uPA wild type + uPAR [5] is “no binding”; in [6], “binds more weakly”; in data set [1] (binding not affected) it was “binds”; in [7], “binds more weakly”; in [8], “binds”; in data set [2], “binds”. The binding result in data set [9] is listed as “binds”; in [10], “binds more weakly”; in data set [11] it was “binds more weakly”; in data set [12], “binds more weakly”; in data set [3] (binding not affected) it was “binds”; with pro-uPA wild type + uPAR [13] it was “no binding”.
